Results as given in publication PMC5996148.
Values joined by “and” are separate entries in the source; they are usually repeats but may differ in a detail not shown here. Identical values can stand only once. The list shows a part of the results.

Tests used:
Experiment in all cases: protein microarray (ProtoArray v5.0), streptavidin-Alexa Fluor 647
Conditions in all cases: 3'-biotin; 20 mM Tris (pH 7.5), 5 mM MgCl2, 100 mM KCl, 0.1% Tween-20, A/T-rich and random oligonucleotide blockers; temperature not stated; high values mean tight binding
HBG1 (human) = system: HBG1 (human)
HBG2 (human) = system: HBG2 (human)
HBZ (human) = system: HBZ (human)
HCCS (human) = system: HCCS (human)
HCG3 (human) = system: HCG3 (human)
HCRTR2 (human) = system: HCRTR2 (human)
HDHD2 (human) = system: HDHD2 (human)
HDHD3 (human) = system: HDHD3 (human)
HEBP1 (human) = system: HEBP1 (human)
HEL308 (human) = system: HEL308 (human)

“GGGAGGCTGAGGCAGG [G4-1 biotinylated (PQS2)]” was tested, and the binding signal (HBG1 (human)) was -0.377 z-score and -0.337 z-score, the binding signal (HBG2 (human)) was -0.337 z-score and the binding signal (HBZ (human)) was -0.36 z-score. It also gave a binding signal (HCCS (human)) of -0.336 z-score, a binding signal (HCG3 (human)) of -0.355 z-score and a binding signal (HCRTR2 (human)) of -0.283 z-score. The binding signal (HDHD2 (human)) was -0.25 z-score, the binding signal (HDHD3 (human)) was -0.34 z-score and the binding signal (HEBP1 (human)) was -0.34 z-score. It also gave a binding signal (HEL308 (human)) of -0.351 z-score.
